Experimental data taken from the supplement of paper PMC4604168 (melanoma cell lines).
The list shows a part of the results. Many values rest on one well or one pass, so single values are uncertain.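 The apoptosis fraction was the count of cleaved-PARP antibody-stained nuclei relative to all DNA-stained nuclei, imaged in 1,536-well plates. Screening doses were set so most cells survived, and baseline and induced cleaved-PARP levels vary greatly across cell lines.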

Columns and labels:
Assay in all cases: cleaved PARP positive nuclei fraction relative to DMSO control; melanoma cells; higher = more apoptosis
Details in all cases: library dose: low library concentration; 72 h
501Mel = system: 501Mel
A101D = system: A101D
A2058 = system: A2058
A375 = system: A375
C32 = system: C32
CBRC008 = system: CBRC008 (line from a melanoma biopsy)
CBRC014 = system: CBRC014 (line from a melanoma biopsy)
CBRC016 = system: CBRC016 (line from a melanoma biopsy)
CBRC017 = system: CBRC017 (line from a melanoma biopsy)

| SMILES | cleaved PARP positive nuclei fraction (501Mel) | cleaved PARP positive nuclei fraction (A101D) | cleaved PARP positive nuclei fraction (A2058) | cleaved PARP positive nuclei fraction (A375) | cleaved PARP positive nuclei fraction (C32) | cleaved PARP positive nuclei fraction (CBRC008) | cleaved PARP positive nuclei fraction (CBRC014) | cleaved PARP positive nuclei fraction (CBRC016) | cleaved PARP positive nuclei fraction (CBRC017) |
| --- | --- | --- | --- | --- | --- | --- | --- | --- | --- |
| CC(=O)O[C@@]12CO[C@@H]1C[C@H](O)[C@@]1(C)C(=O)[C@H](O)C3=C(C)[C@@H](OC(=O)[C@H](O)[C@@H](NC(=O)OC(C)(C)C)c4ccccc4)C[C@@](O)([C@@H](OC(=O)c4ccccc4)[C@H]21)C3(C)C [Docetaxel] + NC1(c2ccc(-c3nc4ccn5c(=O)[nH]nc5c4cc3-c3ccccc3)cc2)CCC1 [MK2206] (first compound 0.0001 µM, partner dose 0.4 µM) | 171% | 318% | 2090% | 10500% | 129% | 370% | 116% | 143% | 219% |
| CC1(C)CCC(c2ccc(Cl)cc2)=C(CN2CCN(c3ccc(C(=O)NS(=O)(=O)c4ccc(N[C@H](CCN5CCOCC5)CSc5ccccc5)c(S(=O)(=O)C(F)(F)F)c4)cc3)CC2)C1 + CS(=O)(=O)c1ccc(C(=O)Nc2ccc(Cl)c(-c3ccccn3)c2)c(Cl)c1 [vismodegib] (first compound 0.4 µM, partner dose 1 µM) | 177% | 95% | 180% | 739% | 244% | 925% | 333% | 277% | 271% |
| Cn1cnc2c(F)c(Nc3ccc(Br)cc3Cl)c(C(=O)NOCCO)cc21 [selumetinib] + CC(=O)O[C@@]12CO[C@@H]1C[C@H](O)[C@@]1(C)C(=O)[C@H](O)C3=C(C)[C@@H](OC(=O)[C@H](O)[C@@H](NC(=O)OC(C)(C)C)c4ccccc4)C[C@@](O)([C@@H](OC(=O)c4ccccc4)[C@H]21)C3(C)C [Docetaxel] (first compound 0.015 µM, partner dose 0.0001 µM) | 35800% | 59.1% | 1170% | 1140% | 110% | 364% | 109% | 182% | 284% |
| CS(=O)(=O)c1ccc(C(=O)Nc2ccc(Cl)c(-c3ccccn3)c2)c(Cl)c1 [vismodegib] + CC(C)C[C@H](NC(=O)[C@H](Cc1ccccc1)NC(=O)c1cnccn1)B(O)O [Bortezomib] (first compound 1 µM, partner dose 0.001 µM) | 223% | 67.1% | 76.6% | 150% | 204% | 107% | 122% | 172% | 169% |
| Cn1sc(=O)n(Cc2ccccc2)c1=O + C[C@@H](Oc1cc(-c2cnn(C3CCNCC3)c2)cnc1N)c1c(Cl)ccc(F)c1Cl [Crizotinib] (first compound 0.4 µM, partner dose 0.2 µM) | 73.7% | 177% | 82.5% | 38.8% | 153% | 39.6% | 93.9% | 47.3% | 122% |
| NC(=O)c1ccc(N(C(N)=O)c2c(F)cccc2F)nc1-c1ccc(F)cc1F + C[C@]1(c2nc3c(C(N)=O)cccc3[nH]2)CCCN1 [Veliparib] (first compound 0.4 µM, partner dose 1.4 µM) | 105% | 51.3% | 62.1% | 144% | 73.9% | 90.3% | 110% | 114% | 104% |
| CCN(CC)CCNC(=O)c1c(C)[nH]c(/C=C2\C(=O)Nc3ccc(F)cc32)c1C [sunitinib] + Cc1cc(Nc2cc(N3CCN(C)CC3)nc(/C=C/c3ccccc3)n2)n[nH]1 [ENMD2076] (first compound 0.4 µM, partner dose 0.04 µM) | 67.8% | 41.1% | 104% | 116% | 75.6% | 38.8% | 91.1% | 163% | 77.4% |
| CC1(C)CCC(c2ccc(Cl)cc2)=C(CN2CCN(c3ccc(C(=O)NS(=O)(=O)c4ccc(N[C@H](CCN5CCOCC5)CSc5ccccc5)c(S(=O)(=O)C(F)(F)F)c4)cc3)CC2)C1 + COc1ccc(C2=N[C@@H](c3ccc(Cl)cc3)[C@@H](c3ccc(Cl)cc3)N2C(=O)N2CCNC(=O)C2)c(OC(C)C)c1 [Nutlin-3] (first compound 0.4 µM, partner dose 0.1 µM) | 25.6% | 334% | 145% | 321% | 347% | 340% | 507% | 384% | 425% |
| CC(=O)O[C@@]12CO[C@@H]1C[C@H](O)[C@@]1(C)C(=O)[C@H](O)C3=C(C)[C@@H](OC(=O)[C@H](O)[C@@H](NC(=O)OC(C)(C)C)c4ccccc4)C[C@@](O)([C@@H](OC(=O)c4ccccc4)[C@H]21)C3(C)C [Docetaxel] + Cc1cc(Nc2cc(N3CCN(C)CC3)nc(/C=C/c3ccccc3)n2)n[nH]1 [ENMD2076] (first compound 0.0001 µM, partner dose 0.04 µM) | 193% | 78% | 1590% | 2490% | 76.7% | 657% | 116% | 218% | 144% |
| NC(=O)c1ccc(N(C(N)=O)c2c(F)cccc2F)nc1-c1ccc(F)cc1F + Nc1nc(F)nc2c1ncn2[C@@H]1O[C@H](CO)[C@@H](O)[C@@H]1O [fludarabine] (first compound 0.4 µM, partner dose 0.2 µM) | 22100% | 44.7% | 116% | 6620% | 85.6% | 90.2% | 131% | 40.2% | 123% |
| Cn1cnc2c(F)c(Nc3ccc(Br)cc3Cl)c(C(=O)NOCCO)cc21 [selumetinib] + Nc1nc(F)nc2c1ncn2[C@@H]1O[C@H](CO)[C@@H](O)[C@@H]1O [fludarabine] (first compound 0.015 µM, partner dose 0.2 µM) | 13800% | 159% | 138% | 1290% | 89.4% | 80.5% | 90.1% | 72.5% | 141% |
| CCN(CC)CCNC(=O)c1c(C)[nH]c(/C=C2\C(=O)Nc3ccc(F)cc32)c1C [sunitinib] + CCCCCCCCc1ccc(CCC(N)(CO)CO)cc1 [fingolimod] (first compound 0.4 µM, partner dose 2 µM) | 106% | 148% | 74.6% | 173% | 87.8% | 44.6% | 108% | 64.6% | 102% |
| NC(=O)c1ccc(N(C(N)=O)c2c(F)cccc2F)nc1-c1ccc(F)cc1F + Nc1ccn([C@@H]2O[C@H](CO)[C@@H](O)C2(F)F)c(=O)n1 [gemcitabine] (first compound 0.4 µM, partner dose 0.0004 µM) | 121% | 52% | 145% | 42.7% | 72.1% | 40.1% | 186% | 125% | 133% |
| C[C@@H](N)c1ccc(C(=O)Nc2ccnc3[nH]ccc23)cc1 + Cn1sc(=O)n(Cc2ccccc2)c1=O [TDZD-8] (first compound 0.4 µM, partner dose 0.4 µM) | 101% | 102% | 113% | 180% | 42.4% | 253% | 85.5% | 30.2% | 121% |
| CCCCCCCCc1ccc(CCC(N)(CO)CO)cc1 [fingolimod] + CO[C@H]1C[C@@H]2CC[C@@H](C)[C@@](O)(O2)C(=O)C(=O)N2CCCC[C@H]2C(=O)O[C@H]([C@H](C)C[C@@H]2CC[C@@H](OCCO)[C@H](OC)C2)CC(=O)[C@H](C)/C=C(\C)[C@@H](O)[C@@H](OC)C(=O)[C@H](C)C[C@H](C)/C=C/C=C/C=C/1C [everolimus] (first compound 2 µM, partner dose 0.02 µM) | 14000% | 131% | 156% | 3960% | 94.4% | 76.8% | 141% | 42.9% | 160% |
| C[C@@H](N)c1ccc(C(=O)Nc2ccnc3[nH]ccc23)cc1 + OCc1c[nH]c2ccccc12 [Indole-3-carbinol] (first compound 0.4 µM, partner dose 0.8 µM) | 221% | 54.4% | 172% | 187% | 98.3% | 111% | 108% | 333% | 130% |
| COc1ccc(C2=N[C@@H](c3ccc(Cl)cc3)[C@@H](c3ccc(Cl)cc3)N2C(=O)N2CCNC(=O)C2)c(OC(C)C)c1 [Nutlin-3] + Cn1c(=O)n(-c2ccc(C(C)(C)C#N)cc2)c2c3cc(-c4cnc5ccccc5c4)ccc3ncc21 [NVP-BEZ235] (first compound 0.1 µM, partner dose 0.004 µM) | 104% | 101% | 132% | 92.2% | 170% | 156% | 104% | 118% | 128% |
| Cn1cnc2c(F)c(Nc3ccc(Br)cc3Cl)c(C(=O)NOCCO)cc21 [selumetinib] + C[C@@H](Oc1cc(-c2cnn(C3CCNCC3)c2)cnc1N)c1c(Cl)ccc(F)c1Cl [Crizotinib] (first compound 0.015 µM, partner dose 0.2 µM) | 1550% | 85.3% | 66.3% | 87.7% | 87.4% | 161% | 108% | 31.9% | 180% |
| NC1(c2ccc(-c3nc4ccn5c(=O)[nH]nc5c4cc3-c3ccccc3)cc2)CCC1 + Clc1ccc(Nc2nnc(Cc3ccncc3)c3ccccc23)cc1 [vatalanib] (first compound 0.4 µM, partner dose 2 µM) | 58% | 57% | 321% | 150% | 83.2% | 98.8% | 116% | 43.6% | 140% |
| NC(=O)c1ccc(N(C(N)=O)c2c(F)cccc2F)nc1-c1ccc(F)cc1F + Nc1ncn([C@H]2C[C@H](O)[C@@H](CO)O2)c(=O)n1 [decitabine] (first compound 0.4 µM, partner dose 0.1 µM) | 87.3% | 93.5% | 106% | 73.5% | 73% | 173% | 87.3% | 112% | 105% |

Rewritten in CSV form: entries from further up
SMILES,cleaved PARP positive nuclei fraction (501Mel),cleaved PARP positive nuclei fraction (A101D),cleaved PARP positive nuclei fraction (A2058),cleaved PARP positive nuclei fraction (A375),cleaved PARP positive nuclei fraction (C32),cleaved PARP positive nuclei fraction (CBRC008),cleaved PARP positive nuclei fraction (CBRC014),cleaved PARP positive nuclei fraction (CBRC016),cleaved PARP positive nuclei fraction (CBRC017)
"CCN(CC)CCNC(=O)c1c(C)[nH]c(/C=C2\C(=O)Nc3ccc(F)cc32)c1C [sunitinib] + Cc1cc(Nc2cc(N3CCN(C)CC3)nc(/C=C/c3ccccc3)n2)n[nH]1 [ENMD2076] (first compound 0.4 µM, partner dose 0.04 µM)",67.8%,41.1%,104%,116%,75.6%,38.8%,91.1%,163%,77.4%
"CC1(C)CCC(c2ccc(Cl)cc2)=C(CN2CCN(c3ccc(C(=O)NS(=O)(=O)c4ccc(N[C@H](CCN5CCOCC5)CSc5ccccc5)c(S(=O)(=O)C(F)(F)F)c4)cc3)CC2)C1 + COc1ccc(C2=N[C@@H](c3ccc(Cl)cc3)[C@@H](c3ccc(Cl)cc3)N2C(=O)N2CCNC(=O)C2)c(OC(C)C)c1 [Nutlin-3] (first compound 0.4 µM, partner dose 0.1 µM)",25.6%,334%,145%,321%,347%,340%,507%,384%,425%
"CC(=O)O[C@@]12CO[C@@H]1C[C@H](O)[C@@]1(C)C(=O)[C@H](O)C3=C(C)[C@@H](OC(=O)[C@H](O)[C@@H](NC(=O)OC(C)(C)C)c4ccccc4)C[C@@](O)([C@@H](OC(=O)c4ccccc4)[C@H]21)C3(C)C [Docetaxel] + Cc1cc(Nc2cc(N3CCN(C)CC3)nc(/C=C/c3ccccc3)n2)n[nH]1 [ENMD2076] (first compound 0.0001 µM, partner dose 0.04 µM)",193%,78%,1590%,2490%,76.7%,657%,116%,218%,144%
"NC(=O)c1ccc(N(C(N)=O)c2c(F)cccc2F)nc1-c1ccc(F)cc1F + Nc1nc(F)nc2c1ncn2[C@@H]1O[C@H](CO)[C@@H](O)[C@@H]1O [fludarabine] (first compound 0.4 µM, partner dose 0.2 µM)",22100%,44.7%,116%,6620%,85.6%,90.2%,131%,40.2%,123%
"Cn1cnc2c(F)c(Nc3ccc(Br)cc3Cl)c(C(=O)NOCCO)cc21 [selumetinib] + Nc1nc(F)nc2c1ncn2[C@@H]1O[C@H](CO)[C@@H](O)[C@@H]1O [fludarabine] (first compound 0.015 µM, partner dose 0.2 µM)",13800%,159%,138%,1290%,89.4%,80.5%,90.1%,72.5%,141%
